{"source": "patent US9341631B2", "about": "“Long wavelength fluorogenic intracellular ion indicators that are well retained in the cytosol” (Life Technologies Corporation, priority 2007, dated 2016)", "assay": "Imaging of cellular localization", "type": "cell-based", "conditions": "FIG. 2", "data": [{"substance": "Fluo-4", "values": [{"measurement": "cellular localization", "value": "green cytosolic signal"}]}, {"substance": "Rhod-2", "values": [{"measurement": "cellular localization", "value": "mitochondrial localization"}]}]}
